We go through 80 compounds from paper PMC12040169 (PLOS Biology, 2025).

The other results are listed elsewhere or left out.

The experiment concerns T1, CTL2-GFP (C. trachomatis L2/434/Bu, GFP-expressing).
T1 construct: L2/434/Bu, GFP-expressing
Also noted: species or system HeLa; Intracellular C. trachomatis growth in HeLa cells, bulk GFP fluorescence relative to DMSO. The following applies: bulk GFP, single well; 28.5 h, 10 µM; inhibitor.
As to `COCCCN(Cc1ccccn1)Cc1ccc(F)cc1F` [CBK282974], the “% of control remaining” value is given as 109.939%. For the compound `Cc1cnn(CCC(=O)NC(Cc2ccsc2)c2nccs2)c1` (centres unmarked) [CBK284664], the “% of control remaining” value was 158.379%. The result for `Fc1ccc(CCN2CCCCC2c2cc3ccccc3[nH]2)cc1` (centres unmarked) [CBK107227T] reads 50.3485%; that for `O=C(c1nccs1)C1CCN(C(=O)Cc2ccc(F)cc2)CC1` [CBK284199], 98.9262%; that for `COc1ccc(C)cc1S(=O)(=O)n1ccc2c(CNC3CCN(C(C)C)CC3)cccc21` [CBK113310T], 105.259%. The result for `Cc1nn(C(C)C)c(C)c1CN(CCO)Cc1cccs1` [CBK283016] reads 132.784%; that for `N#Cc1ccc(S(=O)(=O)NC2CCCCNC2=O)cc1` (centres unmarked) [CBK009293], 109.303%; that for `Cc1ccc2[nH]c(SC(C)C(=O)N3CCOCC3)nc2c1` (centres unmarked) [CBK306187], 90.3992%.

Take `O=C(CSc1ccc(Cl)cc1)OCC(=O)c1ccccc1` [CBK264306]: the “% of control remaining” value amounted to 99.6246%. The result for `Cc1c(Cc2ccccc2)c(N2CCN(Cc3ccccc3)CC2)n2c(nc3ccccc32)c1C#N` [CBK263150] reads 100%.

As for `COC(C(=O)N(C)C)C(OC)C(=O)N(C)C` (centres unmarked) [CBK005447], the “% of control remaining” value is listed as 118.507%. Consider `O=C(CCn1cnc2cc(-c3noc(-c4cnccn4)n3)ccc21)N1CCCC1` [CBK288595], for which the “% of control remaining” value was determined as 148.219%. Turning to `c1ccc(OCCSc2nc3ccccc3nc2N2CCCC2)cc1` [CBK103694], the “% of control remaining” value amounted to 93.7158%. In the case of `O=C(CCC1CCCC1)N1CCC(O)(c2cccnc2)CC1` [CBK283603], the “% of control remaining” value was 128.79%. Turning to `Cc1nc(C)c(C(=O)c2coc3ccc(O)cc23)o1` [CBK027631], the “% of control remaining” value is listed as 125.317%.

As to `CC(C)C(NS(=O)(=O)c1ccc([N+](=O)[O-])cc1)C(C)C` [CBK267656], the “% of control remaining” value is 110.332%. For `N#CCCCN1CCC(Oc2nccnc2OCc2c(F)cccc2Cl)CC1` [CBK153630], the “% of control remaining” value is recorded as 118.129%. As for `Cn1cc(CC(=O)NCc2ccc(OC3CCNCC3)cc2)c2ccccc21` [CBK028430T], the figure is 124.785%; as for `Cc1cc(=O)oc2cc(Sc3ccc([N+](=O)[O-])cc3)ccc12` [CBK002954], 107.853%. For the compound `Cc1cc2c(cc3c(=O)n(CC(=O)N4CCC(C)CC4)nc(C)n32)o1` [CBK283590], the “% of control remaining” value was found to be 150.288%. For `Cc1ccc(OCc2ccc(Cl)nc2)c(Br)c1` [CBK002842], the “% of control remaining” value is 113.135%. As for `CN1CCC(N2CCC[C@H]2c2nc(-c3ccnc(N4CCOCC4)c3)no2)CC1` [CBK288880], the figure is 129.964%. As for `N#Cc1ccc2nc([C@H]3CCN(C(=O)C4CCCCC4)C3)[nH]c2c1` [CBK289380], the figure is 97.1244%; as for `O=C(O)/C=C\C(=O)N(C1CCCCC1)C1CCCCC1` [CBK286562], 95.7973%; as for `Cc1ccc(S(=O)(=O)N2C[C@H](O)C[C@H]2C(=O)O)cc1` [CBK289276], 150.288%.

Consider `CNC(=O)c1ccc(-c2ccco2)nc1N1CCOCC1` [CBK106212], for which the “% of control remaining” value came to 74.6818%. As for `COCC1CN(S(=O)(=O)c2cnc3ccsc3c2)C1` [CBK304768], the figure is 129.216%. For the compound `CCNC(Cc1ccc2ccccc2c1)C(=O)OC` (centres unmarked) [CBK071702], the “% of control remaining” value is reported as 103.039%.

On to `Nc1nc(NCCc2ccccc2)nc(-c2cc(Cl)ccc2O)n1` [CBK074551], for which the “% of control remaining” value turned out to be 101.67%. `Cc1cc(C)n(CC(=O)N2CCCC(c3cc4cccnc4[nH]3)C2)n1` (centres unmarked) [CBK284928]: the “% of control remaining” value was found to be 121.877%. The result for `COc1ccc([C@@]23CC[C@@H](NC(=O)N(C)c4ccc(C)cc4)C[C@@H]2N(C)CC3)cc1OC` [CBK045681T] reads 119.933%; that for `C/C(=N\Nc1cc(-c2ccccc2)nc(C)n1)c1ccc(O)cc1` [CBK261710], 100%; that for `COc1cc(C2C3=C(CC(C)(C)CC3=O)Nc3ncnn32)ccc1OCC(=O)N1CCOCC1` (centres unmarked) [CBK268551], 89.4727%.

On to `CC1=NN(c2ccccc2)C(=O)/C1=C\c1ccc(Cl)cc1` [CBK067772], for which the “% of control remaining” value amounted to 109.983%. Consider `c1ccc(N2CCN(c3cccc(-c4cc5ccccc5o4)n3)CC2)nc1` [CBK036875], for which the “% of control remaining” value was determined as 189.562%. Consider `O=C(O)c1c[nH]nc1-c1cccc(Br)c1` [CBK286963], for which the “% of control remaining” value is reported as 121.484%. Take `COc1ccc(-c2nnc(SC(C)C(=O)Nc3cc(C)no3)n2CC2CCCO2)cc1` (centres unmarked) [CBK297879]: the “% of control remaining” value is 87.8453%. As for `O=C(O)c1ccc(NC(CC(=O)c2ccccc2)c2ccc(Br)cc2)cc1` (centres unmarked) [CBK266195C], the figure is 121.3%; as for `O=C(O)CSc1nnc(-c2sc3ccccc3c2Cl)n1-c1ccccc1` [CBK263830], 100%.

With `Cc1ccccc1-c1cnc(NS(C)(=O)=O)c(C(=O)N(C)C)c1` [CBK106430], the “% of control remaining” value amounted to 94.2239%. The result for `COCCN1CCn2c(nc3cc(NC(=O)C4CCCCC4)ccc32)C1` [CBK307411] reads 124.708%; that for `FC(F)(F)c1nc2ccccc2nc1OCCc1c[nH]c2ccccc12` [CBK115843], 72.9188%. Consider `CN(C)Cc1cc(CN(C)C)c(O)c(CCc2ccccc2)n1` [CBK278316C], for which the “% of control remaining” value is on record as 101.185%. For `C=CCNC(=O)c1cnc(-c2ccc(Cl)cc2)c(-c2ccco2)c1` [CBK036738], the “% of control remaining” value is listed as 150.898%. The result for `CN(C)CCn1c(=O)[nH]c2ncc(-c3ccoc3)nc21` [CBK064294] reads 173.468%; that for `COCCNC(=O)c1c(NC(=O)c2ccccc2C)sc2c1CCCC2` [CBK091645], 121.396%.

For the compound `O=C1CCC(=O)N1CCOc1nccnc1N1CCNCC1` [CBK074030T], the “% of control remaining” value is 120.473%. As for `O=c1[nH]c2ncc(-c3ccco3)nc2n1CCCN1CCOCC1` [CBK064319], the figure is 170.925%. The result for `CN(C)CCN1CCN(c2cc(Nc3ccc(N(C)C)cc3)nc3ccnn23)CC1` [CBK037211] reads 193.048%. The result for `O=C(O)COc1noc2nc3c(cc12)CCCCC3` [CBK269429] reads 113.6%; that for `CCCNC(=O)Cn1nc(CC)n2c(cc3ccsc32)c1=O` [CBK284130], 113.226%.

Take `O=C(O)c1ccc(CNC2CC(=O)N(c3ccc(F)cc3)C2=O)cc1` (centres unmarked) [CBK286727]: the “% of control remaining” value is listed as 120.038%. As for `Cc1[nH]c(=O)[nH]c(=S)c1C(=O)Nc1ccc(Cl)cc1C#N` [CBK115502], the figure is 129.202%; as for `CCOC(=O)N1CCC(NC(=O)N(CCc2ccccc2)Cc2ccccc2)CC1` [CBK155359], 77.8006%; as for `CCOc1ccccc1NC(=O)NCc1cccnc1` [CBK267026], 184.277%. Take `CN1CCc2c(sc3nc(SCc4ccc(Cl)c(Cl)c4)n(-c4ccccc4)c(=O)c23)C1` [CBK263706]: the “% of control remaining” value stood at 113.489%. As for `CCN1C(=O)CC2(C1=O)C(=O)N(Cc1nc(OC)cc(OC)n1)c1ccccc12` (centres unmarked) [CBK075510], the figure is 181.923%. As to `Cc1nn(-c2ccccc2)c(C)c1CNC(=O)C1C2C=CC(C2)C1C(=O)O` (centres unmarked) [CBK286877], the “% of control remaining” value came out at 112.393%.

Regarding `Brc1c(OCCNCCN2CCOCC2)ccc2ccccc12` [CBK268576G], the “% of control remaining” value is 98.8892%. The result for `O=P(O)(CCc1ccccn1)CN1CCCCC1` [CBK262312] reads 97.393%. As for `COC(=O)[C@@H](C)NC(=O)[C@@H]1CN(C(=O)NC(C)C)CCN1C(=O)c1cccs1` [CBK289624], the “% of control remaining” value stood at 91.0527%. The result for `Cc1ccc(NC(=O)CCc2c(C)nc(N3CCOCC3)[nH]c2=O)cc1` [CBK304985] reads 93.0425%; that for `NC(=O)c1c(NC(=O)Cn2ccc([N+](=O)[O-])n2)sc2c1CCCC2` [CBK269139], 99.1615%. On to `COc1ccc(CN2CCN(C(=O)c3ccc(C#N)cc3)CC2)cc1` [CBK305698], for which the “% of control remaining” value was determined as 120.634%. The result for `COc1cc(Nc2cc(-c3ccc(F)c(F)c3)ncn2)cc(OC)c1OC` [CBK090711] reads 138.749%; that for `Cc1c(-c2ccc(OCC(N)=O)cc2)nc2ccc(Br)cc2c1C(=O)O` [CBK287050], 132.544%. Consider `O=[N+]([O-])c1ccccc1S(=O)(=O)N1CCN(S(=O)(=O)c2ccc3ccccc3c2)CC1` [CBK264296], for which the “% of control remaining” value is listed as 121.288%. As for `COc1ccc(C(C)NC2CCN(c3nc(C)cs3)CC2)cc1F` (centres unmarked) [CBK306362], the figure is 151.663%. With `O=C(Cn1c(C2CCNCC2)cc2cccnc21)N1CCCC1` [CBK285013], the “% of control remaining” value came to 111.451%. Take `O=C1/C(=C\Nc2cccc3cccnc23)Sc2ccccc21` [CBK261647]: the “% of control remaining” value worked out at 101.24%. The result for `O=C(c1sc2ccccc2c1Cl)n1cnc2ccccc21` [CBK262216] reads 128.601%; that for `OCCOCCN1CCN(C(=S)Nc2ccccc2)CC1` [CBK018046], 124.321%. For the compound `O=C(/C=C/c1ccc(Br)cc1)N1CCN(Cc2ccc3c(c2)OCO3)CC1` [CBK074434], the “% of control remaining” value is recorded as 100.686%. The result for `Cc1cccc(Nc2[nH]c3cc(C)ccc3c2[N+](=O)[O-])c1` [CBK266303] reads 128.619%. For the compound `COc1ccc(C(O)c2coc3ccc(O)c(CN(C)C)c23)cc1` (centres unmarked) [CBK263083], the “% of control remaining” value is 112.056%. As to `COc1ccc(Cn2c(=O)n(C(=O)CCc3cccc(OC)c3)c3ccccc32)cc1` [CBK106557], the “% of control remaining” value is recorded as 131.92%. The result for `CCC(c1nc2ccccc2c(=O)n1-c1cccnc1)N1C(=O)c2ccccc2C1=O` (centres unmarked) [CBK268300] reads 145.529%. In the case of `CSCCNC(=O)c1coc(COc2ccc3sc(C)nc3c2)n1` [CBK307004], the “% of control remaining” value is listed as 116.117%. As for `CCNS(=O)(=O)c1ccc2c(c1)N(Cc1csnn1)CC2` [CBK306161], the figure is 172.498%. Turning to `Cc1cc(S(=O)(=O)NCCC#N)c(C)cc1Cl` [CBK043680], the “% of control remaining” value was 109.648%.
